Test results as given in patent publication US20170189504A1, “NOVEL PEPTIDES AND COMBINATION OF PEPTIDES FOR USE IN IMMUNOTHERAPY AGAINST VARIOUS CANCERS” (immatics biotechnologies GmbH, priority 2015, published 2017).
For part of these data: For expression read-outs the peptide stands for its source gene, whose mRNA was measured; the gene is not named for every peptide.

What was measured:
source genes (mRNA) [1] = assay: Expression profiling of source genes by in-house RNASeq of tumor and normal tissues (Table 18, FIG. 2); design: species or system human; key: very highly over-expressed in tumors compared to a panel of normal tissues (+++); highly over-expressed in tumors compared to a panel of normal tissues (++); over-expressed in tumors compared to a panel of normal tissues (+); details: source gene of peptide; for Expression score GBC_CCC: gallbladder adenocarcinoma and cholangiocarcinoma (N = 3) vs panel of normal tissues; for Expression score NSCLC: non-small cell lung cancer (N = 11) vs panel of normal tissues; for Expression score OC: ovarian cancer (N = 12) vs panel of normal tissues; for Expression score PC: pancreatic cancer (N = 26) vs panel of normal tissues; for Expression score UBC: urinary bladder cancer (N = 10) vs panel of normal tissues; for Expression score UEC: uterine cancer (N = 10) vs panel of normal tissues
source genes (mRNA) [2] = assay: Gene and exon expression of source genes, TCGA tumor samples compared with normal tissue samples (Lonsdale, 2013) (Table 17); design: species or system human; details: for Target coverage: over-expression category of source gene, LAML: Acute Myeloid Leukemia (N = 173); for Target coverage: over-expression category of source gene, BLCA: Bladder urothelial carcinoma (N = 408); for Target coverage: over-expression category of source gene, BRCA: Breast cancer (N = 1104), cutoff more than 2-fold above highest 75% percentile of high and medium risk normal tissue samples; for Target coverage: over-expression category of source gene, CHOL: Cholangiocarcinoma (N = 36); for Target coverage: over-expression category of source gene, COAD: Colon and rectal adenocarcinoma (N = 462); for Target coverage: over-expression category of source gene, ESCA: Esophageal cancer (N = 185); for Target coverage: over-expression category of source gene, LUAD: Lung adenocarcinoma (N = 517); for Target coverage: over-expression category of source gene, LUSC: Lung squamous cell carcinoma (N = 503); for Target coverage: over-expression category of source gene, OV: Ovarian serous cystadenocarcinoma (N = 309); for Target coverage: over-expression category of source gene, PAAD: Pancreatic ductal adenocarcinoma (N = 179); for Target coverage: over-expression category of source gene, SKCM: Skin cutaneous melanoma (N = 473); for Target coverage: over-expression category of source gene, STAD: Stomach adenocarcinoma (N = 415); for Target coverage: over-expression category of source gene, UCEC: Uterine corpus endometrial carcinoma (N = 546)
HLA-A*02 = assay: Identification and relative LC-MS quantitation of HLA-A*02-presented tumor-associated peptides on tissue samples (presentation profiles, Tables 13A, 13B, 15, FIG. 1); design: species or system human; key to Presentation score NHL / Presentation score CLL / Presentation score BRCA / Presentation score AML / Presentation score GB / Presentation score NSCLC / Presentation score GBC_CCC / Presentation score UEC / Presentation score MEL / Presentation score OSCAR / Presentation score GC / Presentation score UBC / Presentation score OC / Presentation score RCC / Presentation score CRC / Presentation score PCA / Presentation score HCC / Presentation score PC / Presentation score SCLC: specifically presented on tumors (++++); very highly over-presented on tumors compared to a panel of normal tissues (+++); highly over-presented on tumors compared to a panel of normal tissues (++); over-presented on tumors compared to a panel of normal tissues (+); details: for Presentation score OSCAR: esophageal cancer, including cancer of the gastric-esophageal junction (N = 17) vs panel of normal tissues (N = 262); for Presentation score NSCLC: non-small cell lung cancer (N = 90) vs panel of normal tissues (N = 262); for Presentation score OC: ovarian cancer (N = 20) vs panel of normal tissues (N = 262); for Peptide Presentation on cancer entities: HLA-A*02-binding tumor-associated peptides
[3] = cutoff more than 2-fold above highest 75% percentile of normal tissue samples
[4] = Table 13A, cancer entities on which the peptide was found presented
[5] = Table 13B, presentation on additional cancer entities

Substance	Expression score GBC_CCC (source genes (mRNA) [1])	Expression score NSCLC (source genes (mRNA) [1])	Expression score OC (source genes (mRNA) [1])	Expression score PC (source genes (mRNA) [1])	Expression score UBC (source genes (mRNA) [1])	Expression score UEC (source genes (mRNA) [1])	Target coverage: over-expression category of source gene, LAML (source genes (mRNA) [2]; [3])	Target coverage: over-expression category of source gene, BLCA (source genes (mRNA) [2]; [3])	Target coverage: over-expression category of source gene, BRCA (source genes (mRNA) [2])	Target coverage: over-expression category of source gene, CHOL (source genes (mRNA) [2]; [3])	Target coverage: over-expression category of source gene, COAD (source genes (mRNA) [2]; [3])	Target coverage: over-expression category of source gene, ESCA (source genes (mRNA) [2]; [3])	Target coverage: over-expression category of source gene, LUAD (source genes (mRNA) [2]; [3])	Target coverage: over-expression category of source gene, LUSC (source genes (mRNA) [2]; [3])	Target coverage: over-expression category of source gene, OV (source genes (mRNA) [2]; [3])	Target coverage: over-expression category of source gene, PAAD (source genes (mRNA) [2]; [3])	Target coverage: over-expression category of source gene, SKCM (source genes (mRNA) [2]; [3])	Target coverage: over-expression category of source gene, STAD (source genes (mRNA) [2]; [3])	Target coverage: over-expression category of source gene, UCEC (source genes (mRNA) [2]; [3])	Presentation score OSCAR (HLA-A*02; HLA-A*02 peptides)	also measured
21: peptide found in MAD2L1 (gene looked up) (AIQDEIRSV; listed as Homo sapiens) [compound 21]	+	+	+	+	+	+	A (>=50% of tumors above the cutoff)	A (>=50% of tumors above the cutoff)	A (>=50% of tumors above the cutoff)	C (>=5% of tumors above the cutoff, but <20%)	A (>=50% of tumors above the cutoff)	A (>=50% of tumors above the cutoff)	B (>= 20% of tumors above the cutoff, but <50%)	A (>=50% of tumors above the cutoff)	A (>=50% of tumors above the cutoff)	C (>=5% of tumors above the cutoff, but <20%)	A (>=50% of tumors above the cutoff)	A (>=50% of tumors above the cutoff)	B (>= 20% of tumors above the cutoff, but <50%)	++++	Expression score BRCA (source genes (mRNA) [1]; BRCA tumors vs panel of normal tissues): +; Expression score AML (source genes (mRNA) [1]; acute myeloid leukemia (N = 11) vs panel of normal tissues): +; Expression score CRC (source genes (mRNA) [1]; colorectal cancer (N = 20) vs panel of normal tissues): +; Expression score OSCAR (source genes (mRNA) [1]; esophageal cancer incl. gastric-esophageal junction (N = 11) vs panel of normal tissues): +; Expression score GC (source genes (mRNA) [1]; gastric cancer (N = 11) vs panel of normal tissues): +; Expression score GB (source genes (mRNA) [1]; glioblastoma (N = 24) vs panel of normal tissues): +; Expression score NHL (source genes (mRNA) [1]; non-Hodgkin lymphoma (N = 10) vs panel of normal tissues): +++; Expression score SCLC (source genes (mRNA) [1]; small cell lung cancer (N = 10) vs panel of normal tissues): ++; Target coverage: over-expression category of source gene, READ (source genes (mRNA) [2]; Colon and rectal adenocarcinoma (N = 167), cutoff more than 2-fold above highest 75% percentile of normal tissue samples): A (>=50% of tumors above the cutoff); Target coverage: over-expression category of source gene, GBM (source genes (mRNA) [2]; Glioblastoma multiforme (N = 169), cutoff more than 2-fold above highest 75% percentile of normal tissue samples): A (>=50% of tumors above the cutoff); Target coverage: over-expression category of source gene, LIHC (source genes (mRNA) [2]; Liver hepatocellular carcinoma (N = 374), cutoff more than 2-fold above highest 75% percentile of normal tissue samples): C (>=5% of tumors above the cutoff, but <20%); Target coverage: over-expression category of source gene, LGG (source genes (mRNA) [2]; Lower grade glioma (N = 534), cutoff more than 2-fold above highest 75% percentile of normal tissue samples): C (>=5% of tumors above the cutoff, but <20%); Target coverage: over-expression category of source gene, DLBC (source genes (mRNA) [2]; Lymphoid neoplasm diffuse large B-cell lymphoma (N = 48), cutoff more than 2-fold above highest 75% percentile of normal tissue samples): A (>=50% of tumors above the cutoff); Presentation score BRCA (HLA-A*02; HLA-A*02 peptides, breast cancer (N = 17) vs panel of normal tissues (N = 262)): ++++; Presentation score GB (HLA-A*02; HLA-A*02 peptides, glioblastoma (N = 41) vs panel of normal tissues (N = 262)): ++++; Presentation score NHL (HLA-A*02; HLA-A*02 peptides, non-Hodgkin lymphoma (N = 18) vs panel of normal tissues (N = 262)): ++++; Presentation score NSCLC (HLA-A*02; HLA-A*02 peptides): ++++; Presentation score OC (HLA-A*02; HLA-A*02 peptides): ++++; Peptide Presentation on cancer entities (HLA-A*02; [4]): GB, NSCLC, OSCAR, OC, BRCA, NHL; Peptide Presentation on cancer entities (HLA-A*02; [5]): MEL, CRC, AML
23: peptide found in ADAM10 (gene looked up) (SLFSDEFKV; listed as Homo sapiens) [compound 23]	+	+		+	+++	+	A (>=50% of tumors above the cutoff)	B (>= 20% of tumors above the cutoff, but <50%)	B (>= 20% of tumors above the cutoff, but <50%)	B (>= 20% of tumors above the cutoff, but <50%)	C (>=5% of tumors above the cutoff, but <20%)	A (>=50% of tumors above the cutoff)	C (>=5% of tumors above the cutoff, but <20%)	C (>=5% of tumors above the cutoff, but <20%)	C (>=5% of tumors above the cutoff, but <20%)	C (>=5% of tumors above the cutoff, but <20%)	B (>= 20% of tumors above the cutoff, but <50%)	A (>=50% of tumors above the cutoff)		+	Expression score PCA (source genes (mRNA) [1]; prostate cancer and benign prostate hyperplasia (N = 5) vs panel of normal tissues): +; Target coverage: over-expression category of source gene, KIRC (source genes (mRNA) [2]; Clear cell kidney carcinoma (N = 534), cutoff more than 2-fold above highest 75% percentile of normal tissue samples): B (>= 20% of tumors above the cutoff, but <50%); Target coverage: over-expression category of source gene, KICH (source genes (mRNA) [2]; Kidney chromophobe (N = 66), cutoff more than 2-fold above highest 75% percentile of normal tissue samples): C (>=5% of tumors above the cutoff, but <20%); Target coverage: over-expression category of source gene, KIRP (source genes (mRNA) [2]; Papillary kidney carcinoma (N = 291), cutoff more than 2-fold above highest 75% percentile of normal tissue samples): B (>= 20% of tumors above the cutoff, but <50%); Target coverage: over-expression category of source gene, PRAD (source genes (mRNA) [2]; Prostate adenocarcinoma (N = 498), cutoff more than 2-fold above highest 75% percentile of normal tissue samples): B (>= 20% of tumors above the cutoff, but <50%); Presentation score AML (HLA-A*02; HLA-A*02 peptides, acute myeloid leukemia (N = 18) vs panel of normal tissues (N = 262)): ++; Presentation score CRC (HLA-A*02; HLA-A*02 peptides, colorectal cancer (N = 28) vs panel of normal tissues (N = 262)): ++; Presentation score NSCLC (HLA-A*02; HLA-A*02 peptides): +; Presentation score RCC (HLA-A*02; HLA-A*02 peptides, renal cell carcinoma (N = 20) vs panel of normal tissues (N = 262)): +; Presentation score UBC (HLA-A*02; HLA-A*02 peptides, urinary bladder cancer (N = 16) vs panel of normal tissues (N = 262)): +++; Peptide Presentation on cancer entities (HLA-A*02; [5]): MEL
25: peptide found in MUC16 (gene looked up) (TMDSVLVTV; listed as Homo sapiens) [compound 25]			+++	+		++		C (>=5% of tumors above the cutoff, but <20%)	C (>=5% of tumors above the cutoff, but <20%)				C (>=5% of tumors above the cutoff, but <20%)		A (>=50% of tumors above the cutoff)	C (>=5% of tumors above the cutoff, but <20%)			A (>=50% of tumors above the cutoff)		Presentation score OC (HLA-A*02; HLA-A*02 peptides): ++++; Presentation score UEC (HLA-A*02; HLA-A*02 peptides, uterine cancer (N = 15) vs panel of normal tissues (N = 262)): ++++; Peptide Presentation on cancer entities (HLA-A*02; [4]): OC, UEC
